## Screening data, single-dose tests

Data taken from ChEMBL document CHEMBL3988442, “University of Dundee, Small-Polar-MMV Screening Library” (2021).

Results are given as percent effect. The controls that fix the scale are not given in the record; negative values are as filed. This is an unselected part of the compounds tested.

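Whole-cell growth test on Mycobacterium tuberculosis, read after 4 days in a medium based on cholesterol and the lipid DPPC; the read-out is not stated. Compounds at 500 µM. Direction is inferred from retests: higher values go with more growth inhibition. About 18,000 compounds were tested under these conditions; 5% (about 900) showed 50% or more at least once.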

CN(C)S(=O)(=O)NCCC(C)(C)C(F)(F)F gave -2.106%. CCc1cnc(NCCCN2CCN(C)CC2)nc1 gave -11.9%. Result for CC(C)c1nc(NCc2cccnc2)n(C)n1 was -7.588%. With O=C(c1cccs1)N1CCN(C(=O)C2CCCO2)CC1 (configuration not stated) the screen gave -8.414%.

For CC(C)(C)OC(=O)N1CCCN(CCO)CC1 the result was -2.508%. For CC(C)NC(=O)CNCc1ccc(Br)o1 the result was 37.43%. With CS(=O)(=O)N1CCN(c2ccc(C(N)=O)cc2)CC1 the screen gave -1.62%. For CC(C)Cc1nc(COCc2ncc[nH]2)no1 the result was 2.798%.

Cn1ccc2ccc(NS(=O)(=O)C3CC3)cc2c1=O gave -21.57%. With CC[C@H]1COCCN1C(=O)c1ccn(CC)c(=O)c1 the screen gave -5.117%. CC(C)c1ccnc(N2CCOC(CCN)C2)n1 (configuration not stated) gave -0.9963%. With CCN(C)C(=O)CN1CC(Oc2cccc(Cl)c2)C1 the screen gave -22.39%.

Result for Cc1n[nH]c(C)c1NC(=O)OC(C)(C)C was -0.277%. NC(=O)C(Sc1nncs1)c1ccc(Br)cc1 (configuration not stated) read 72.08%. For CC1CCCN(CC(=O)Nc2ccccc2C(N)=O)C1 (configuration not stated) the result was 66.77%. For Cc1ccc(NC(C)C(=O)N2CCNC2=O)cc1F (configuration not stated) the result was 32.29%.

Result for NCC(=O)NCc1ccncc1 was 12.9%. With Cc1ccnc(NC(=O)[C@@H]2CCCO2)n1 the screen gave -10.92%. CCCC(=O)Nc1c(C)n[nH]c1C read 18.65%. Result for O=C(CCn1cncn1)NCC1(c2ccccc2)CC1 was 5.849%.

For O=C(Nc1cn[nH]c1)C1CCNC1 (configuration not stated) the result was -1.218%. Result for CCc1cnc(CN(C(C)=O)C2CCNC2)o1 (configuration not stated) was 2.652%. For Cc1cc(C(=O)N2CCN[C@H](C)C2)n[nH]1 the result was 1.279%. For CN1CCC(Oc2ccc(CN)cc2)CC1 the result was 4.766%.

Result for O=C(NCc1cccnc1)c1ccc(C(F)(F)F)nc1 was -5.74%. NCCc1cnc2ccccc2c1 gave 2.567%. With CC(N)c1cccc(N2CCCS2(=O)=O)c1 (configuration not stated) the screen gave 4.296%. Cc1noc(C)c1C(=O)N1CCCN(C)CC1 gave 0.7787%.

Result for NC(=O)C[C@@H](N)c1ccccc1Cl was -17.22%. CNCC1CCCN(C(=O)Cc2cccc(F)c2F)C1 (configuration not stated) read 13.22%. Result for CS(=O)(=O)N1CCN(CCn2cncn2)CC1 was 7.109%. With CN(C)c1noc(C2CCCN2)n1 (configuration not stated) the screen gave -2.428%.

With CC1(C)COC(=O)C1N (configuration not stated) the screen gave -1.439%. With CCC(N)(CC)CCO the screen gave -11.96%. With Cc1cc(CN)nn1C the screen gave -7.762%. O=S(=O)(c1ccc2c(c1)CCCN2)N1CCCC1 read 27.01%.